Source: the supplement of paper PMC5949888
± gives the standard deviation of the averaged measurements. Most values lie at the floor of the assay. Slopes are relative: functional sequences can read slightly below zero.

test system: Saccharomyces cerevisiae PS128 hsf1 delta, HSF1(1-493) fusion; experiment: growth estimate (transactivation domain function in HSF1 fusion, heat-shock survival) (a.u. (slope of normalised read count over time)); higher = stronger growth at 37°C, i.e. more transactivation activity; details: library: random library

| Substance | growth estimate |
| --- | --- |
| LGWMVLLGGHWKHPRKARDC | < -0.25 |
| WGGRSIASYPVCTYGHDRLG | < -0.25 |
| SSGGAERHKGFDGM | < -0.25 |
| RLWRFRMSSPAFP | < -0.25 |
| ERFAG | < -0.25 |
| IRPWSRVEIRPAGFYSLASA | < -0.25 |
| IAGGISSGVRRALSCRFFGY | < -0.25 |
| TTPESTVRTSSGCE | < -0.25 |
| GVLYGGLE | < -0.25 |
| STGASFY | < -0.25 |
| SIHSPSPWGQDDSAILCCAL | < -0.25 |
| DIKFTYTWLRVGGHRV | < -0.25 |
| VSILGDLNNLFCQLGQVAGP | < -0.25 |
| DSVGPSVR | < -0.25 |
| WRTRGPIVMPVPKGFLLHGP | < -0.25 |
| ERVFSTYHDGALRPALAYGA | < -0.25 |
| MNSSGLESGGPSVTSGMLRP | < -0.25 |
| IQSAMCAKCVLYLHGQHGVS | < -0.25 |
| SWKLVGTRAGRRMCL | < -0.25 |
| LNRSTVCSLAGIGGSDWCTS | -0.248 |
| LGCFGERSFRVHILGT | < -0.25 |
| CSVL | < -0.25 |
| VDLG | < -0.25 |
| VRLVINLLGKN | < -0.25 |
| DCYP | < -0.25 |
| LPH | < -0.25 |

| Substance | growth estimate |
| --- | --- |
| RVVRLVGAASPFCNEISGVA | < -0.25 |
| VGCRRT | < -0.25 |
| SAGVSCEIV | < -0.25 |
| LGVLGDKFGSQESSSDSCPC | < -0.25 |
| QQLWTGYYVARLTMRRVGGV | < -0.25 |
| PGFSVDT | -0.246 |
| PTSCHLYTWGVSRAPRVGTW | < -0.25 |
| NFPLYLLIVT | < -0.25 |
| LTGNPPRNLRRVICLTPGVV | -0.231 |
| SPWVCPRPADHHTSYGSTGV | < -0.25 |
| VLLGDMPESR | < -0.25 |
| CATRRNSLFLTSTTFHSACI | < -0.25 |
| TTC | < -0.25 |
| NLLRSTWLGTVRAI | < -0.25 |
| LTHCF | < -0.25 |
| GHVKPLKLGAAKSSPSAGGR | < -0.25 |
| LPRFSLTVWIAKEGDDSGSR | < -0.25 |
| LKNACRGCFRAAWTGSIRQM | < -0.25 |
| SMVTKGRGAGNPNSLSEVQP | < -0.25 |
| AIPTRCRGRYLASIVTSNLK | < -0.25 |
| TCPVYSNIRHISSEMENMSS | < -0.25 |
| NAHGHKRQEGTSGLASNSTK | < -0.25 |
| GVVPQGGEDRMIGRD | < -0.25 |
| YRIGKLLVVQ | < -0.25 |
| APPVSILYRMGSCIG | < -0.25 |
| VVPT | < -0.25 |

| Substance | growth estimate |
| --- | --- |
| HLVGHYFTDQHNARAVVRHQ | < -0.25 |
| ASSMAYNMHIACRDSGMSGQ | < -0.25 |
| RGCVVYR | < -0.25 |
| VDAGIMALTGSGAMPS | < -0.25 |
| LLHPSWTTHGGPQAHPVEGQ | < -0.25 |
| LVEDTKAKAPAARMHCQTGC | < -0.25 |
| GRLR | < -0.25 |
| HADCKDTSRHHRRQLHGGIL | < -0.25 |
| RQSESGVPKGIVLWLGQLSR | < -0.25 |
| MRRDCVGDSGCVKLAVKSSV | < -0.25 |
| IVQHYLSDYKGKLILVFVAL | < -0.25 |
| LSRQCPT | < -0.25 |
| PRRRIALPGECHVLGGLGQG | < -0.25 |
| AELHKQCPCRVSI | < -0.25 |
| PVAGPRSVASGGC | < -0.25 |
| PST | < -0.25 |
| SEIRSLHVEF | < -0.25 |
| LHWDPALAITRYG | < -0.25 |
| ARVDNVRIVAPMAHVRHRHR | < -0.25 |
| QPATFHGSGSETEPMCADEI | < -0.25 |
| PRCVLDLLYVSRSSRHWKVL | < -0.25 |
| DLLMARKFYLLEVSGIVTSV | 0.161 |
| RVRGVGMMCRILVGYHTDDE | < -0.25 |
| GTTVESISVPGTISWNGNVA | < -0.25 |
| WRKGG | < -0.25 |
| PTMVFLVQPSVDYSRSTRSC | < -0.25 |

| Substance | growth estimate |
| --- | --- |
| YALW | < -0.25 |
| DIQLRSRPDLKSFSPPHPAS | < -0.25 |
| LPAHT | < -0.25 |
| NIRVR | < -0.25 |
| SGNRDLLDICGQPLSKKLSG | < -0.25 |
| RMRTTRAMMIVPDRGGHEPR | < -0.25 |
| GPNLRQR | < -0.25 |
| RSSSSC | < -0.25 |
| VGVRAARAFVNDRFVFEMRY | < -0.253 |
| AYMLGEVSYFAGWDQGLVLC | < -0.25 |
| RFFLRRLRDGEVQRGGLFCG | < -0.25 |
| TEVQISPQ | < -0.253 |
| RVPISVATNGEIRGLLRLVR | -0.246 |
| VLEVEIRQKT | < -0.25 |
| GDAKLVSTSYTLTYTSNFEE | < -0.25 |
| RDGRAGA | < -0.25 |
| VMGLSGDGVGSTRYLELAPW | < -0.25 |
| KATTALGRSDCVVDRVGFHH | < -0.25 |
| GTPASCMANTGFLEIIRTTD | < -0.25 |
| VSRQGS | < -0.25 |
| HVRVFFTATMCL | < -0.25 |
| LFLFEADLCLGLSAEGRY | -0.121 |
| ARPT | < -0.25 |
| DQMSRATPLSP | < -0.25 |
| GRIVKTGYGSS | < -0.25 |
| ACKPSL | < -0.25 |

| Substance | growth estimate |
| --- | --- |
| LSA | -0.248 ± 0.003 |
| YVGWE | < -0.25 |
| WNGRTLCPVAPVCGVAPPRT | < -0.25 |
| ERIASLKGRV | < -0.25 |
| RLLKRLAWVASGGDCQVPPL | < -0.25 |
| TLRASVCVATPET | < -0.25 |
| VSFER | < -0.25 |
| TQDGRDGRCLRIRRCPQGSQ | < -0.25 |
| GCGSSLDSGGRCLS | < -0.25 |
| VTILLHERSSPSCSRTCTGG | < -0.25 |
| RTNKLSCLFGTASVGGYNGA | < -0.25 |
| STHEY | < -0.25 |
| LRSPAYPAACHQSSR | < -0.25 |
| SVRFLISITLHIRLGPPCTP | < -0.25 |
| QSGPPS | < -0.25 |
| NGVKESGLRGKLDLPQRRTM | -0.176 |
| VVCWPRKHWELSILIIGSAM | < -0.25 |
| FSGENKRVPCR | < -0.25 |
| GLSAECLWVT | < -0.25 |
| HSMRHVPELTLTIGVTCMQI | < -0.25 |
| CGDPSVGYHRTSFSQLRHAL | < -0.25 |
| WEASSRPKTNRYGSGIQALY | < -0.25 |
| RPTLRGAPVT | < -0.25 |
| HDQYGEKG | < -0.25 |
| VIRACTLGSGFAKSTTYWHR | < -0.25 |
| EDPE | < -0.25 |

Looked up one by one from above:

| Substance | growth estimate |
| --- | --- |
| ASSMAYNMHIACRDSGMSGQ | < -0.25 |
| WEASSRPKTNRYGSGIQALY | < -0.25 |
| WRTRGPIVMPVPKGFLLHGP | < -0.25 |
| CGDPSVGYHRTSFSQLRHAL | < -0.25 |
| VSRQGS | < -0.25 |

Carrying on.

| Substance | growth estimate |
| --- | --- |
| ADK | < -0.25 |
| VCSENGWAVFSQRHLGTSSV | < -0.25 |
| SGLLPNNCL | < -0.25 |
| LCL | < -0.25 |
| CEVGVS | < -0.25 |
| VTGRKRIAISTGY | < -0.25 |
| PILQVDHVTAMIANVKRR | < -0.25 |
| VQPNG | < -0.25 |
| SVPKSEGISGLDGGVFPNS | < -0.25 |
| GLGPPLPSTQWRERASRSAA | < -0.25 |
| LLELKATSNTKSIYVRRGDL | < -0.25 |
| AESVARNR | < -0.25 |
| ALLMGGVYERWVTYVCQLTP | -0.235 |
| QGNSLRVEPQSGTG | < -0.25 |
| KSPCCG | < -0.25 |
| KHG | < -0.25 |
| THRRLAWMNHSPFTTLYKTG | < -0.25 |
| LGRRLSHSTDAENRRVNMGD | < -0.25 |
| CTTGTLG | < -0.25 |
| LPRSRCYWECTRPGKICEEG | < -0.25 |
| KPCQSSGVWIARFKT | < -0.25 |
| KCITAPPARLDRLCFSP | < -0.25 |
| WFIYDVFSGWETGYWKGFIS | < -0.25 |
| HAIIKFGGCSVLVRTDKDGN | < -0.25 |
| KHSAQSGRVTVR | < -0.25 |
| IRLLA | < -0.25 |

| Substance | growth estimate |
| --- | --- |
| GWSVQTGRRASRWC | < -0.25 |
| SFVGPS | < -0.25 |
| LENGYA | < -0.25 |
| ICGGSFNFEIGLSRMVYWGQ | < -0.25 |
| THRKSCERTGSKGASITPNA | < -0.25 |
| LYPDPQSMGRNHLDHGCQIL | < -0.25 |
| SCVCFPCRTLGYG | < -0.25 |
| RMH | < -0.25 |
| GGDAERHN | < -0.25 |
| KTCMGPDDGEALFNLRR | < -0.25 |
| TRYNVLTTTR | < -0.25 |
| ALVGVEQVD | < -0.25 |
| WSEGQSFPR | < -0.25 |
| VNLIAAKITSDRCALPQSYT | < -0.25 |
| AYTDCLPLCRSSTVVNRPNA | < -0.25 |
| LEKIQPRANWTLAL | < -0.25 |
| SSRHFAIIN | < -0.25 |
| HSEDVWEGIH | < -0.25 |
| DRRERSRWDKTISKGYCSLG | < -0.25 |
| MQITQNAEEGGVRYMSSGSA | < -0.25 |
| TTVPGVDSKHSRLTLPTRMC | < -0.25 |
| FNGML | < -0.25 |
| PAYFVRQVLSVSCADTVISR | < -0.25 |
| GDVRRSGPVVPSCTVLCRNC | < -0.25 |
| LWASFPMFAQKPPSVLYTAP | < -0.25 |
| LSEEPGPVTRSFGLGQRACR | < -0.25 |

| Substance | growth estimate |
| --- | --- |
| CLRSSLLVCVETALAWFH | < -0.25 |
| FVCHV | < -0.25 |
| DHGICLVRWIMLFPGPCRED | < -0.25 |
| VGGIEPWSALGRLGEGTSSH | < -0.25 |
| GVATRTADNLPMITY | < -0.25 |
| LTASRLTLKSVNEGLTCT | < -0.25 |
| LHRSGGNFTRSP | < -0.25 |
| CTGQPNDESKV | < -0.25 |
| SLGPVPVDGI | < -0.25 |
| CGGCGPSYRGLVVQNKYKDR | < -0.25 |
| RQYLI | < -0.25 |
| PRYNRSCFRSSRVRFRSATS | < -0.25 |
| DTPC | < -0.25 |
| RLTALG | < -0.25 |
| QIAIQSMGIFAELSRTSGHE | < -0.25 |
| TESGMRQGMGVFTVAIASGV | < -0.25 |
| YKLALSLTL | < -0.25 |
| THS | < -0.25 |
| ARAI | < -0.25 |
| PGET | < -0.25 |
| VKRNGI | < -0.25 |

Nothing new here: an excerpt of the list.

| Substance | growth estimate |
| --- | --- |
| LPRSRCYWECTRPGKICEEG | < -0.25 |
| KPCQSSGVWIARFKT | < -0.25 |
